According to PMC13170346:

Target: PomY (Myxococcus xanthus)
Assay: two-hybrid; Gal4-based yeast two-hybrid in AH109, high stringency: growth on SD/-Leu/-Trp/-His + 10 mM 3-AT agar, 30°C, 120 h, three independent clones

B1: PomZ (enzyme, UniProt Q1DEM0 1-319)
chain: MEAPTYSSKQVAEMLGVSPKQIPEESRKDAYTPDDIWELRTTLDRFPARLGHRRQLFLNFKGGTGKTSLSTSYAWRLAELGYAVLLIDLDSQGHATKCLGYEGEDFEKTLLDVLVRKTPLAKVIQKSSLPNLDFVPSNLTMSTVDLALMPMAGREFKLRNALKDVEAQYDVVVFDAPPSFGLLNLNALMAANDLFVPVLADFLSFHGLKLLFETVQSLEEDLNHVLDHVFIVVNSFNATFKLAKEALEALQTHYPEFLLPTIIRQCTKFAQASSEGRPVFVADPSSKGANDIQAMIDNILPRLVAAAAVAQTKGTQQAG
- binding: binds

B2: PomZ^D90A (enzyme, UniProt Q1DEM0 1-319)
chain: B1 chain with D90A
- binding: binds

B3: PomZ^G62V (enzyme, UniProt Q1DEM0 1-319)
chain: B1 chain with G62V
- binding: no binding

B4: PomZ^K268E (enzyme, UniProt Q1DEM0 1-319)
chain: B1 chain with K268E
- binding: no binding

Where a chain is given by its changes, count along the chain named. Names may count otherwise. No constants are given. Whether binding was seen depends on the method and setting. A result given as binding can be weak or reduced; the word gives no strength.
